Assay results reported in publication PMC12337293.
No constants are given. Whether binding was seen depends on the method and setting. Binding seen in cells or lysates may run through a third protein. A result given as binding can be weak or reduced; the word gives no strength.

Target: T1, CLOCK (human (endogenous in U2OS)) (UniProt O15516)
T1 sequence: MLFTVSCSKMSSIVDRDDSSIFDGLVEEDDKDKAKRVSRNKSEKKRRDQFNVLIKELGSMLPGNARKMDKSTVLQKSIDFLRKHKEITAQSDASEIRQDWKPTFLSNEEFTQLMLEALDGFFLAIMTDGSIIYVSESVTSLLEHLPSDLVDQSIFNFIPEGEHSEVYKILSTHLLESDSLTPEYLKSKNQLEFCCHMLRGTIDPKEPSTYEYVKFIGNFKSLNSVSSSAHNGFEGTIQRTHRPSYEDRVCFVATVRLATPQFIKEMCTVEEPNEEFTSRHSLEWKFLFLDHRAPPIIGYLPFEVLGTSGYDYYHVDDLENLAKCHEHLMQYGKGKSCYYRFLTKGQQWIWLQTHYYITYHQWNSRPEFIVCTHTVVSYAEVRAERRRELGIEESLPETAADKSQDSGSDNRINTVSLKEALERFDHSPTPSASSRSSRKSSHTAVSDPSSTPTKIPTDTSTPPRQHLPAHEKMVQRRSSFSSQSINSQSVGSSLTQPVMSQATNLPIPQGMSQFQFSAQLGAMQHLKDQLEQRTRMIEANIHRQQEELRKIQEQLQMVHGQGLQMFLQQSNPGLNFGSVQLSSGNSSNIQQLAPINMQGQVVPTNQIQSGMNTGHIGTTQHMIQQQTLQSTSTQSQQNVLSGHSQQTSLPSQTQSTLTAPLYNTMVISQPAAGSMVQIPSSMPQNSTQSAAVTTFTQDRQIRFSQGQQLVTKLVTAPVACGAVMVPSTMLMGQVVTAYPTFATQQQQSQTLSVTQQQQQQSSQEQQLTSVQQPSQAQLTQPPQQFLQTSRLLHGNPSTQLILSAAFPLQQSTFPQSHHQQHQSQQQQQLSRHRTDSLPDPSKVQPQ
Assay: co-IP; 1 µg rabbit anti-CLK IgG and Protein A DynaBeads with 500 µg total protein of U2OS lysate, 4 h at 4 °C; lysis buffer 10 mM Tris-Cl pH7.5, 100 mM NaCl, 5 mM EDTA, 1% Triton X-100, 0.05% SDS; 6 washes (150 mM NaCl, 0.4% Triton X-100, 0.05% SDS); immunoblot with mouse anti-BMAL1

Substance: BMAL1 c.821-1G>C (human (endogenous in U2OS))
- binding: binds

Substance: BMAL1 c.1524-3C>A (human (endogenous in U2OS))
- binding: binds
